Data taken from article PMC8613218.
Results are given in words; binding and its absence hold for the method and conditions named. Binding seen in cells or lysates may run through a third protein. Some entries that bind do so weakly or less than the wild type.

By UniProt entry, the sequences of proteins in these tests, tags left out.
UniProt Q00417: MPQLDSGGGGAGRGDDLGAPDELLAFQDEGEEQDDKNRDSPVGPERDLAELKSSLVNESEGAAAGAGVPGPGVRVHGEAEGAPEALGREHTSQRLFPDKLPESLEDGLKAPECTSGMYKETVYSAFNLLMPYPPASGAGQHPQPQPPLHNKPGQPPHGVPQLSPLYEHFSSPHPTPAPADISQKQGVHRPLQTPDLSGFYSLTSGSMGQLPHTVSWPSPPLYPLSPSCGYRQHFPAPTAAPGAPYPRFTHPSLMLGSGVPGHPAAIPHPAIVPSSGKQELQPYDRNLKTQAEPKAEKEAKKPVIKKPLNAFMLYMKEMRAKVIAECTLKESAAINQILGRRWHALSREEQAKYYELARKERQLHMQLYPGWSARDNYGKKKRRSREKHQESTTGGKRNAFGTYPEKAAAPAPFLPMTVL
UniProt P35222: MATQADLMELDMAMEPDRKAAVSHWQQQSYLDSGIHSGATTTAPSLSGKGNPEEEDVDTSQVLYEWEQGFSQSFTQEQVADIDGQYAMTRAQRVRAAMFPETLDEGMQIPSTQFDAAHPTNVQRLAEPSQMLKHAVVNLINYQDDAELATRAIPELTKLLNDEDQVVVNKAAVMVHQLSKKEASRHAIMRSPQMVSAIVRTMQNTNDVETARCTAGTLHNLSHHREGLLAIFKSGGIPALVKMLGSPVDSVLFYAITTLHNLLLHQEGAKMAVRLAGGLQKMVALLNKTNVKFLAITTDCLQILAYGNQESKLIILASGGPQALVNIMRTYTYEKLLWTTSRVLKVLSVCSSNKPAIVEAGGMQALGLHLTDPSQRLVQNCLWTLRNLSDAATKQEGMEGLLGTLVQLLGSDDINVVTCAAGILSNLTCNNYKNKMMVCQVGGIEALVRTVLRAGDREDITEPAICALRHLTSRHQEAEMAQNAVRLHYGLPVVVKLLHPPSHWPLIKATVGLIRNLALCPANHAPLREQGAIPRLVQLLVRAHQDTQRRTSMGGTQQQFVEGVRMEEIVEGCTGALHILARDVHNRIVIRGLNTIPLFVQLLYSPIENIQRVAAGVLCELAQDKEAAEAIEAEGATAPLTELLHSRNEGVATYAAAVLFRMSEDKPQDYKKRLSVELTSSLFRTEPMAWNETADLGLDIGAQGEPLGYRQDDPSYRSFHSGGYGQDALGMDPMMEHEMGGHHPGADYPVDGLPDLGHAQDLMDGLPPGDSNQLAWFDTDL

Target: Flag-tagged TCF1 (p45) (mouse) (UniProt Q00417)
Experiment: co-IP; Flag-tagged TCF1 (p45) precipitated from transfected HEK293T lysate (anti-FLAG agarose beads, FLAG peptide elution), components of the LSD1/CoREST complex detected in eluted IP fractions by immunoblot; 2 h at 4 °C

β-catenin (from UniProt P35222 1-781)
binding: binds
